# According to the supplement of paper PMC8256030:
# Several values for one entry are separate records, joined by “and”; a condition that tells them apart may be missing. Identical values can stand only once. The list shows a part of the results. Single values are uncertain here, since repeats match poorly.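 HEK293T cells were given each compound shortly before transfection with a reporter in which red mCherry is followed by the SARS-CoV-2 frameshift element and then GFP in the −1 frame, so GFP appears only after frameshifting.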
# Tests used:
# [1] = system: SARS-CoV-2 -1 PRF reporter mCherry-FSE-GFP(-1); assay: mCherry (red) intensity as percent of control; higher = higher upstream reporter expression; details: 10 µM; 24 h; HEK293T
# [2] = system: SARS-CoV-2 -1 PRF reporter mCherry-FSE-GFP(-1); assay: percent effect, decrease of GFP/mCherry ratio (-1 PRF reporter) relative to controls; higher = stronger frameshift inhibition; details: 10 µM; 24 h; HEK293T
SMILES,mCherry [1],percent effect [2]
O=C(O)c1ccccc1C(=O)Nc1ccc(S(=O)(=O)Nc2nccs2)cc1 [phthalylsulfathiazole],85.7%,-0.057%
CC(c1ccccc1)C1Nc2cc(Cl)c(S(N)(=O)=O)cc2S(=O)(=O)N1 (stereo not given) [bemetizide],74.9%,1.59%
COc1cc2c3cc1Oc1cc(ccc1O)C[C@@H]1c4c(cc(OC)c(O)c4Oc4ccc(cc4)C[C@@H]3N(C)CC2)CC[N+]1(C)C [(+)-Tubocuraraine chloride],107%,1.19%
CN1CCN(CCCN2c3ccccc3Sc3ccc(Cl)cc32)CC1 [prochlorperazine],31.6%,-8.58%
CCCC(CCC)C(=O)NCC(N)=O [valrocemide],105%,-4.84%
C[C@@H](O[C@H]1OCCN(Cc2nn(P(=O)(O)O)c(=O)[nH]2)[C@H]1c1ccc(F)cc1)c1cc(C(F)(F)F)cc(C(F)(F)F)c1 [Fosaprepitant],98.1%,-1.98%
COc1cccc(N(C)C(=S)Oc2ccc3c(c2)CCCC3)n1 [liranaftate],98%,4.51%
CCC1=C[C@@H]2CN(C1)Cc1c([nH]c3ccccc13)[C@@](C(=O)OC)(c1cc3c(cc1OC)N(C)[C@H]1[C@@](O)(C(=O)OC)[C@H](OC(C)=O)[C@]4(CC)C=CCN5CC[C@]31[C@@H]54)C2,23.9%,-3.13%
COc1c(C)c2c(c(O)c1C/C=C(\C)CCC(=O)OCCN1CCOCC1)C(=O)OC2,187% and 166%,-10.1% and -9.69%
CC(=O)O[C@]1(C(C)=O)CC[C@H]2[C@@H]3C=C(Cl)C4=CC(=O)[C@@H]5C[C@@H]5[C@]4(C)[C@H]3CC[C@@]21C,87.6%,-8.56%
